Measured values published in the supplement of paper PMC10849652.
The list shows a part of the results.

Protein sequences, listed by entry. Tags and fused reporters are not part of them. Lines headed by an entry give the natural chain unless they say otherwise; changes in a name come on top.
UniProt P31995: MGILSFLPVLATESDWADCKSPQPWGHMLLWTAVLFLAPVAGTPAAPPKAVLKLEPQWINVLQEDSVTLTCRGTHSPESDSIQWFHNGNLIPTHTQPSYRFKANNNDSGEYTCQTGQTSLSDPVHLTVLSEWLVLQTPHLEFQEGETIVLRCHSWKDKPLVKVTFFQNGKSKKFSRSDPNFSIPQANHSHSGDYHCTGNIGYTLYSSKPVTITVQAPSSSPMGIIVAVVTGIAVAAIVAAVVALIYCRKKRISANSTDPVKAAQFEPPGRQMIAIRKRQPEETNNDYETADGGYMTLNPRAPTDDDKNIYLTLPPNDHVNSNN
UniProt Q13451: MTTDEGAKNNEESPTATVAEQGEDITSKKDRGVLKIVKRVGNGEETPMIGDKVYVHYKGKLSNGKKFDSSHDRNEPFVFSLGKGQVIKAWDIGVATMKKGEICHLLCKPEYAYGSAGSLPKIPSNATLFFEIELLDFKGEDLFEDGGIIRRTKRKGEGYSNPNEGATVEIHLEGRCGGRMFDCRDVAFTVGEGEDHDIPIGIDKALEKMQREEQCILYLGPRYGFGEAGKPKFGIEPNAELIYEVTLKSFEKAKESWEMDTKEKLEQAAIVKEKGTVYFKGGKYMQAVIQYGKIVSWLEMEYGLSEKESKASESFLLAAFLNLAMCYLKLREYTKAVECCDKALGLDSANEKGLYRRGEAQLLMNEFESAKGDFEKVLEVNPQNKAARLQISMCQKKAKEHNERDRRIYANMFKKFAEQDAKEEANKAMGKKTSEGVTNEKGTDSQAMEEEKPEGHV
UniProt P26885: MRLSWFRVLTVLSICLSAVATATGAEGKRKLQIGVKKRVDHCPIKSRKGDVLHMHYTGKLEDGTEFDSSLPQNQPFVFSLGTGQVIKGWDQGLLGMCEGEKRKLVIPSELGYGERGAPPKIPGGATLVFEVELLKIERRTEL
UniProt Q14192: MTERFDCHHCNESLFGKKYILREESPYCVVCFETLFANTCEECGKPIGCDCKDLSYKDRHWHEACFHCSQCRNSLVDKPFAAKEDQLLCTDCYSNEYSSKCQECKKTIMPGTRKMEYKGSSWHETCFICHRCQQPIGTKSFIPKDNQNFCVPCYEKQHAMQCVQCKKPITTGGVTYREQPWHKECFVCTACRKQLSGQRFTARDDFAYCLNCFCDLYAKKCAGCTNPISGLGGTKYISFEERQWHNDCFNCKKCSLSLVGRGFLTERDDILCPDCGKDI
UniProt Q96ND0: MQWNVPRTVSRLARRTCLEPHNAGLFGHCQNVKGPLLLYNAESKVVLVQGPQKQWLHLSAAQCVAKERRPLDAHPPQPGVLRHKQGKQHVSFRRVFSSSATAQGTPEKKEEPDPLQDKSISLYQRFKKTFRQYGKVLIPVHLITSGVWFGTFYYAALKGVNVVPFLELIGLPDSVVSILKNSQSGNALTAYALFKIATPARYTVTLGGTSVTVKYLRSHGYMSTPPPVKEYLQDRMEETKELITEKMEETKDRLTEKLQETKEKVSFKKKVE
UniProt Q9Y421: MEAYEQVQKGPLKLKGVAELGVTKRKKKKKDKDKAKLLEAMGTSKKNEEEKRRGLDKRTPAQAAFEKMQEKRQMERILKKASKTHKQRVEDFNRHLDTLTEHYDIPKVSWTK
UniProt Q9NSD9: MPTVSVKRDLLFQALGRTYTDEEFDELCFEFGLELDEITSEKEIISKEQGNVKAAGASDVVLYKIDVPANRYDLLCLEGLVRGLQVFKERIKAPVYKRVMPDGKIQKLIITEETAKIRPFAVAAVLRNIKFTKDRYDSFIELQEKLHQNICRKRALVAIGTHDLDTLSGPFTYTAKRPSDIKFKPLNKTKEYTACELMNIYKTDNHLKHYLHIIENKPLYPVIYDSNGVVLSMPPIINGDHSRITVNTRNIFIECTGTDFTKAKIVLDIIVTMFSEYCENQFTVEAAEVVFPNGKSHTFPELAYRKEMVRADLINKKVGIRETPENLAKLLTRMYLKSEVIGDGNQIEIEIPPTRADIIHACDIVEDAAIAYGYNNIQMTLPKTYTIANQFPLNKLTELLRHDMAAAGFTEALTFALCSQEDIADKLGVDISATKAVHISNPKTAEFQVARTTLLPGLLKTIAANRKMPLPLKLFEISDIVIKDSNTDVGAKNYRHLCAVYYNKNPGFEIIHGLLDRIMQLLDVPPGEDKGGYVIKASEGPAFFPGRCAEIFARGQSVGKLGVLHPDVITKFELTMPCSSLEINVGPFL
UniProt Q5JUQ0: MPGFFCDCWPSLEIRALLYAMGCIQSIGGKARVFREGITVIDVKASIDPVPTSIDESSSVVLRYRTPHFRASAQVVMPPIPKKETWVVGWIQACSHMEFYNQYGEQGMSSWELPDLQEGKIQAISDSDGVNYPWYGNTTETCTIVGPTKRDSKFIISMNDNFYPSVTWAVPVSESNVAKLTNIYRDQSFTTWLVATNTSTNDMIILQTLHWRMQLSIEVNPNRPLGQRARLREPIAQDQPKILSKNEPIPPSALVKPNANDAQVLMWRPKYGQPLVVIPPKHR
UniProt O95302: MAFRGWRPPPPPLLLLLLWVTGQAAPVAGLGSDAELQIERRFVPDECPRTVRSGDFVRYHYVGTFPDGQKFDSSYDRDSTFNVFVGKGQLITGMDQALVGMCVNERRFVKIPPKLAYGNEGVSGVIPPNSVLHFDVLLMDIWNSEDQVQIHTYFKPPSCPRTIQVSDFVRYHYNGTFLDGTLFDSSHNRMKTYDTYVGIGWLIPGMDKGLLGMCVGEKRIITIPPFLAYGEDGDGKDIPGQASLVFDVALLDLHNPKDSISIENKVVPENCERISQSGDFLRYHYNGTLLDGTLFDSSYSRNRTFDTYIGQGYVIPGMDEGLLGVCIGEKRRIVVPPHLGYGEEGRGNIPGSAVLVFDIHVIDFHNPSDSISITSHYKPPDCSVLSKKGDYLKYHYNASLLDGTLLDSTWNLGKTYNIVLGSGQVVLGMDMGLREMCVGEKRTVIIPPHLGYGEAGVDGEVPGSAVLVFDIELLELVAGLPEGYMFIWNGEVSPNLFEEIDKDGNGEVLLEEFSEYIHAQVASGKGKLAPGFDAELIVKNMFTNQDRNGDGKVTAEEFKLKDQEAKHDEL
UniProt Q8WVX9: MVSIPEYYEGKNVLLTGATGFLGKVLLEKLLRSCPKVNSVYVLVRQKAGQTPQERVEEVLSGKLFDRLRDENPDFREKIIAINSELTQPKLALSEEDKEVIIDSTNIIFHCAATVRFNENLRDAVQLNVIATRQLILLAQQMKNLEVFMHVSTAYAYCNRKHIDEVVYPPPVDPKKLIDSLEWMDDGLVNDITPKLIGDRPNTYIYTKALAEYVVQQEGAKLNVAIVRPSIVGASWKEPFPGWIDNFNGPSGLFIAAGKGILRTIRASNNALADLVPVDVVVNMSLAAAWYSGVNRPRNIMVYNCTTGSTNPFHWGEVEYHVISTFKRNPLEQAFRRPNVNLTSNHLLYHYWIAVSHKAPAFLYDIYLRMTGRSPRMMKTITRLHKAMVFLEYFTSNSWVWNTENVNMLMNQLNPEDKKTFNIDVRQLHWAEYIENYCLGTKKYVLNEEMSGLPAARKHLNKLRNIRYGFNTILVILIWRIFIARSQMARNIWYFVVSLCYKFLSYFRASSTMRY
UniProt Q8TB52: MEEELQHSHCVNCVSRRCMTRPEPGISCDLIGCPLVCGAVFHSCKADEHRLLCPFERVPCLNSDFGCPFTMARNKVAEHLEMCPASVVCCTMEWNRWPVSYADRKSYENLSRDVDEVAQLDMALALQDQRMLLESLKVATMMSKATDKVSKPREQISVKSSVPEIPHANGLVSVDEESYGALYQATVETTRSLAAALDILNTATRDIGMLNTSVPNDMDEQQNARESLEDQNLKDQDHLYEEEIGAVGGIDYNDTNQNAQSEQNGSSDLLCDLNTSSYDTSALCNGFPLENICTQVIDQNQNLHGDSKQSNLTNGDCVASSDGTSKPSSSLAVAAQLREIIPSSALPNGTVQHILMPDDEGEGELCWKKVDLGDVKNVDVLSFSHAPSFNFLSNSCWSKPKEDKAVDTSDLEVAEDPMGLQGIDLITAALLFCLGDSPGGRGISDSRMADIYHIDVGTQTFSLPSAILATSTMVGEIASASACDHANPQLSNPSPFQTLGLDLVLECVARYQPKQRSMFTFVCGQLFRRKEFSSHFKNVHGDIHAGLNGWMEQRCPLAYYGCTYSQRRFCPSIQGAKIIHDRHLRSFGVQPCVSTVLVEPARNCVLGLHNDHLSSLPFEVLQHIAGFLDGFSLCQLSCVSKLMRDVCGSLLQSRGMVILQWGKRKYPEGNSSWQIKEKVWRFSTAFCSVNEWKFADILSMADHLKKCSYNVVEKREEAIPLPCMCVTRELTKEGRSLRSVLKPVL
UniProt Q5T1M5: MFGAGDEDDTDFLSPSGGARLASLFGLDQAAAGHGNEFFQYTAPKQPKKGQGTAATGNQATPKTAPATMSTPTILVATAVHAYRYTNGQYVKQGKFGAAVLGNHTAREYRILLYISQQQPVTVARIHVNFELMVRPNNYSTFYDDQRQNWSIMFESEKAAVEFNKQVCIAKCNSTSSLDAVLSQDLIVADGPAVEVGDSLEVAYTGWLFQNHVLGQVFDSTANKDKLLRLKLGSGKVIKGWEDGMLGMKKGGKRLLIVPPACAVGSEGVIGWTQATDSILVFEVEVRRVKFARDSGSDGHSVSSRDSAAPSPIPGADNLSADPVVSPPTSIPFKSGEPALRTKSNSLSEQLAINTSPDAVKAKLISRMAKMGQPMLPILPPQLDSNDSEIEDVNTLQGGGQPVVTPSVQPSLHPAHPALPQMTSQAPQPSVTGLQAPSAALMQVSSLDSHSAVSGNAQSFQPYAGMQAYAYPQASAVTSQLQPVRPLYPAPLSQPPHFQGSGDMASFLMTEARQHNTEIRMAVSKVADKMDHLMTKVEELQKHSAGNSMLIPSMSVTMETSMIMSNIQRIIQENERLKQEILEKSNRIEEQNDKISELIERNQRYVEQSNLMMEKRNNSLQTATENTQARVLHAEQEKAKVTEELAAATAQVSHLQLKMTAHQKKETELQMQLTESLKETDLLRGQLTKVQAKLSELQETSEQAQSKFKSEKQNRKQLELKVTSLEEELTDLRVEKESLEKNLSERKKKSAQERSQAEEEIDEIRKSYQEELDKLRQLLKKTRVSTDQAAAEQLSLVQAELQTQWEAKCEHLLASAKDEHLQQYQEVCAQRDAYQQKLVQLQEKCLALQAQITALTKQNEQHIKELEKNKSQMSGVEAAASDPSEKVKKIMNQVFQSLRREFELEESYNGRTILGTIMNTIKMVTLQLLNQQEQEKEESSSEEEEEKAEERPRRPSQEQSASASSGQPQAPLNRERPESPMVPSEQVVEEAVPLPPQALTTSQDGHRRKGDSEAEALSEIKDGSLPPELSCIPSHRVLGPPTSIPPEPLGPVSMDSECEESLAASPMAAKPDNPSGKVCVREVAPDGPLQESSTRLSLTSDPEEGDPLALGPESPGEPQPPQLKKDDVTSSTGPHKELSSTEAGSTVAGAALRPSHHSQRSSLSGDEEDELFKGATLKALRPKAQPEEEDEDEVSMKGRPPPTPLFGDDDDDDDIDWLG
UniProt P23142: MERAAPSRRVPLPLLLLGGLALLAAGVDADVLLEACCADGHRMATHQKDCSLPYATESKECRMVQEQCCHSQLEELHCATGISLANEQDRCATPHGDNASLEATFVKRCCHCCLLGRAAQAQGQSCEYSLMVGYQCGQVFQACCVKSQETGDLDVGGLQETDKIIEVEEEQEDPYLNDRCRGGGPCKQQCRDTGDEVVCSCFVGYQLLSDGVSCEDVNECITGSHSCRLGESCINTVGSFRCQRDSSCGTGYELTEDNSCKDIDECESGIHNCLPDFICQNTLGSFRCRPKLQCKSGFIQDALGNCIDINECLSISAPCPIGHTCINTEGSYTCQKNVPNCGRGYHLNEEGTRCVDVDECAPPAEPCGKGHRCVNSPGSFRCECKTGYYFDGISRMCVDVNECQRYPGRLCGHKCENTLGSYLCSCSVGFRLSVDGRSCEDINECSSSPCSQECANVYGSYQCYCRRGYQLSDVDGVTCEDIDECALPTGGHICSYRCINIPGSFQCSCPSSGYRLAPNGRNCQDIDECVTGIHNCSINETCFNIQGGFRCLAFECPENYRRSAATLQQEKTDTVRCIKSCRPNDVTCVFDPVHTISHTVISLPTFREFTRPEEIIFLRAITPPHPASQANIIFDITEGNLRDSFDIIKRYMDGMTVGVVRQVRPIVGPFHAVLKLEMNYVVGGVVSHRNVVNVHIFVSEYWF
UniProt Q9HA64: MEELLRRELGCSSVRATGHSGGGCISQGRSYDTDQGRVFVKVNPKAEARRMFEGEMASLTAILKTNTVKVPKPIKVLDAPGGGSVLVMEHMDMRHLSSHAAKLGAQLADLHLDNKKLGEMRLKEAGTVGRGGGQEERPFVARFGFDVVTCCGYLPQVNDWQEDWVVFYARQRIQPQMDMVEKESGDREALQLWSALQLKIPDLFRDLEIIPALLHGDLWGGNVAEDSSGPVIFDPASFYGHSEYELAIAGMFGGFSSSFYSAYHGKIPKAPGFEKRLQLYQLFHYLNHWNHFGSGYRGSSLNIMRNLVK

What follows are targets tested with Cc1cn(-c2cc(NC(=O)c3ccc(C)c(Nc4nccc(-c5cccnc5)n4)c3)cc(C(F)(F)F)c2)cn1 [nilotinib] (assay: log2 fold change, soluble protein after heating vs DMSO (PISA); higher = thermal stabilisation; K562 cells, 10 uM, 30 min; active = over 0.2 and 3.5 SD of the protein, either way, in both replicates (recomputed)).
Summary of the method: (§1)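 K562 cells at 2×10^6 cells/mL were treated with 10 μM compound for 30 min. Aliquots were heated for 3 min across 48°C-58°C, pooled, and extracted in PBS with 0.5% NP-40 at 4°C; soluble protein was the supernatant after 21,000xg for 90 min. Soluble protein was quantified by TMTpro 16plex LC-MS/MS with channel sums equalised, and reported as log2 fold change in thermal stability against DMSO controls, with values from duplicates.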

log2 fold change, inactive:
FLNC (UniProt Q14315) 0, FCGR2C (UniProt P31995) 0.064, FKBP5 (UniProt Q13451) -0.129, FKBP2 (UniProt P26885) 0.026, FHL2 (UniProt Q14192) -0.018, FAM210A (UniProt Q96ND0) 0.006, FAM32A (UniProt Q9Y421) -0.111, FARSB (UniProt Q9NSD9) -0.05, FAM78A (UniProt Q5JUQ0) -0.045, FKBP9 (UniProt O95302) 0.027, FAR1 (UniProt Q8WVX9) -0.009, FBXO30 (UniProt Q8TB52) -0.049, FKBP15 (UniProt Q5T1M5) -0.068, FBLN1 (UniProt P23142) 0.117

The targets below were run with Cc1nc(Nc2n[nH]c3c2CN(C(=O)N[C@H](CN(C)C)c2ccccc2)C3(C)C)c2sccc2n1 in the same assay as above.
Summary of the method: as §1

log2 fold change, inactive:
FBXO22 (UniProt Q8NEZ5) -0.058, FNBP4 isoform 2 (UniProt Q8N3X1) -0.004, FGFR1OP (UniProt O95684) -0.015, FCSK isoform 2 (UniProt Q8N0W3) -0.019, FAM76B (UniProt Q5HYJ3) 0.185, FLVCR1 (UniProt Q9Y5Y0) 0.069, FAM98A (UniProt Q8NCA5) 0.084, FERMT2 isoform 3 (UniProt Q96AC1) -0.077, FN3K (UniProt Q9H479) 0.042, FEM1B (UniProt Q9UK73) -0.031, FN1 isoform 1 (UniProt P02751) 0.073, FN3KRP (UniProt Q9HA64) 0.042, FIP1L1 (UniProt Q6UN15) -0.095, FLYWCH2 (UniProt Q96CP2) -0.018, FDX1 (UniProt P10109) -0.045, FLOT2 (UniProt Q14254) -0.12, FAM98B (UniProt Q52LJ0) 0, FLOT1 (UniProt O75955) -0.064, FBXO5 (UniProt Q9UKT4) -0.043, FLT4 (UniProt P35916) 0.062, FLAD1 (UniProt Q8NFF5) 0.058, FLII (UniProt Q13045) -0.006, FLNB isoform 8 (UniProt O75369) -0.033, FLNC (UniProt Q14315) -0.012, FCGR2C (UniProt P31995) -0.021, FKBP5 (UniProt Q13451) -0.122, FKBP2 (UniProt P26885) 0.013, FHL2 (UniProt Q14192) 0.003, FAM210A (UniProt Q96ND0) 0.022, FAM32A (UniProt Q9Y421) 0.18, FARSB (UniProt Q9NSD9) -0.002, FAM78A (UniProt Q5JUQ0) 0.049, FKBP9 (UniProt O95302) 0.033, FAR1 (UniProt Q8WVX9) 0.003, FBXO30 (UniProt Q8TB52) 0.017, FKBP15 (UniProt Q5T1M5) -0.134, FBLN1 (UniProt P23142) 0.103

These targets were tested with Cc1nc(Nc2ncc(C(=O)Nc3c(C)cccc3Cl)s2)cc(N2CCN(CCO)CC2)n1 [dasatinib] in the same assay as above.
Summary of the method: as §1

log2 fold change, inactive:
FBXO22 (UniProt Q8NEZ5) -0.131, FNBP4 isoform 2 (UniProt Q8N3X1) 0.049, FGFR1OP (UniProt O95684) 0.016, FCSK isoform 2 (UniProt Q8N0W3) 0.001, FAM76B (UniProt Q5HYJ3) 0.017, FLVCR1 (UniProt Q9Y5Y0) 0.14, FAM98A (UniProt Q8NCA5) 0.055, FERMT2 isoform 3 (UniProt Q96AC1) 0.2, FN3K (UniProt Q9H479) 0.046, FEM1B (UniProt Q9UK73) -0.065, FN1 isoform 1 (UniProt P02751) 0.008, FN3KRP (UniProt Q9HA64) 0.02, FIP1L1 (UniProt Q6UN15) 0.091, FLYWCH2 (UniProt Q96CP2) 0.01, FDX1 (UniProt P10109) 0.003, FLOT2 (UniProt Q14254) 0.073, FAM98B (UniProt Q52LJ0) -0.092, FLOT1 (UniProt O75955) -0.013, FBXO5 (UniProt Q9UKT4) -0.042, FLT4 (UniProt P35916) 0.029, FLAD1 (UniProt Q8NFF5) -0.101, FLII (UniProt Q13045) -0.065, FLNB isoform 8 (UniProt O75369) -0.069, FLNC (UniProt Q14315) -0.056, FCGR2C (UniProt P31995) 0.025, FKBP5 (UniProt Q13451) -0.135, FKBP2 (UniProt P26885) -0.002, FHL2 (UniProt Q14192) 0.022, FAM210A (UniProt Q96ND0) 0.054, FAM32A (UniProt Q9Y421) 0.174, FARSB (UniProt Q9NSD9) -0.046, FAM78A (UniProt Q5JUQ0) -0.163, FKBP9 (UniProt O95302) 0.03, FAR1 (UniProt Q8WVX9) 0.038, FBXO30 (UniProt Q8TB52) -0.029, FKBP15 (UniProt Q5T1M5) -0.058, FBLN1 (UniProt P23142) 0.088
